## Screening data

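Genome-wide siRNA knockdown in TC32 Ewing sarcoma cells, comparing luciferase light from an NR0B1-promoter reporter with a CMV-promoter reporter 48 hours after transfection. Each siRNA was applied at 20 nM. A z-score of the log NR0B1-over-CMV signal, less the median of siRNAs with the same seed; more negative means a stronger specific loss of the NR0B1 reporter.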

This is part of the screen; most of the strongest results are not listed here. Sequences are the guide (antisense) strand, without overhang.

siRNA: UAGAAAGACAGAUCCCUCU
gene: PRIMA1
seed-corrected z-score: 0.1913

siRNA: UCCUUAACCAAUUGAUCUG
gene: RTKN2
seed-corrected z-score: -0.07817

siRNA: UAAGUCUAAAGAACUUUCC
gene: ZNF529
seed-corrected z-score: -0.03051

siRNA: AUAUAGUUGACCUCCAUUC
gene: UBE2E2
seed-corrected z-score: -0.1861

siRNA: UAUGGUUGUCCAUGGUCUG
gene: GSTM1
seed-corrected z-score: -0.09262

siRNA: UUCCCGUAAAUAUCACACC
gene: SEMA3A
seed-corrected z-score: -0.1994

siRNA: AAUGUAGACACUGGUCAGG
gene: ADAMTS13
seed-corrected z-score: -0.374

siRNA: UUUUCUACUCCAGCUCUCC
gene: LOC729995
seed-corrected z-score: -0.9015

siRNA: AGAUGUAGAAAAGACGAUC
gene: SLC27A1
seed-corrected z-score: 0.01247

siRNA: UCUGUAGUCAUCACAGGCU
gene: MGP
seed-corrected z-score: -0.1031

siRNA: AAGGUAACCAUCUUGAAUG
gene: EIF5A2
seed-corrected z-score: 0.04831

siRNA: UUCGAUAUCAUAUCCAGAG
gene: LRP2
seed-corrected z-score: 0.4529

siRNA: UCUCAUUCGUUUAAUACCC
gene: CEP128
seed-corrected z-score: -0.2234

siRNA: UAGGCUCAGGGUCCACUUC
gene: LCE1C
seed-corrected z-score: 1.78

siRNA: UUCCAUUGUGGUAAUGUCC
gene: UGT8
seed-corrected z-score: -0.6485

siRNA: UAAUGUUUUGAGGGUAAGG
gene: B3GALT1
seed-corrected z-score: -0.8875

siRNA: UGUCCGUCCAGUCUCCUUG
gene: SH2D7
seed-corrected z-score: 0.7139

siRNA: UUUGGGUUGAGUAAGACCA
gene: FAM177B
seed-corrected z-score: 0.5841

siRNA: UUUCUAAGCAGUGAGCGGU
gene: NHLH1
seed-corrected z-score: -0.3769

siRNA: UUCUGUAACUUCGUCCUCA
gene: UFSP1
seed-corrected z-score: -0.3562

siRNA: AACUUAGUUGCUGCUCAGG
gene: VCY
seed-corrected z-score: -0.8464

siRNA: UCAUGGUUGAGGUCAGUCU
gene: CKM
seed-corrected z-score: -0.3885

siRNA: UGGUAGUUGAGUUACAAAC
gene: OR5F1
seed-corrected z-score: -1.435

siRNA: UUUAUCCGGAAAGAUGACC
gene: RGL4
seed-corrected z-score: 1.328

Some entries from above, unchanged:

siRNA,gene,seed-corrected z-score
UAAUGUUUUGAGGGUAAGG,B3GALT1,-0.8875
UCUCAUUCGUUUAAUACCC,CEP128,-0.2234

Data taken from PubChem BioAssay AID1159506, deposited by NCATS (2015).